From paper PMC5421193
Results are given in words; binding and its absence hold for the method and conditions named. For part of these data: Binding calls can cover weak binding; strength is not graded here. For part of these data: Binding seen in cells or lysates may run through a third protein. For part of these data: Where a sequence is shown, tags or fusion partners need not be part of it.

By UniProt entry, the sequences of proteins in these tests, tags left out. Where a name states a change or a piece, a line headed by the entry shows the natural chain unless it says otherwise.
UniProt D5LM18: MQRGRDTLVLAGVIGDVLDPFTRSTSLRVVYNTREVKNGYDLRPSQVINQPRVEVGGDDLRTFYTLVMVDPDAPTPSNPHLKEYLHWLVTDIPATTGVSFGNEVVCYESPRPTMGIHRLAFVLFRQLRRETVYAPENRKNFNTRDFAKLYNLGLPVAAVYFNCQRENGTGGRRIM

Legend:
[1] = target: RoTFL1 (Rosa TFL1) fused to the C-terminal half of YFP (Rosa hybrida); assay: split reporter; BiFC in N. benthamiana leaf epidermis cells; AtFD-YFP^N (pFGC-YN173) with FT/TFL1 homologs fused to YFP^C (pFGC-YC155); YFP fluorescence by confocal microscopy
[2] = target: RoFTmu3 (A116S) fused to the C-terminal half of YFP (Rosa hybrida); assay: as above
[3] = target: RoFTmu2 (T65I) fused to the C-terminal half of YFP (Rosa hybrida); assay: as above
[4] = target: FaTFL1 (Fragaria TFL1) fused to the C-terminal half of YFP (Fragaria ananassa); assay: as above
[5] = target: RoFTmu5 (N154D) fused to the C-terminal half of YFP (Rosa hybrida); assay: as above
[6] = target: PhFT (Petunia FT) fused to the C-terminal half of YFP (Petunia hybrida) (UniProt D5LM18); assay: as above
[7] = target: RoFT-YFP^C (Rosa FT fused to the C-terminal half of YFP) (Rosa hybrida); assay: as above
[8] = target: RoFTmu4 (Y153C) fused to the C-terminal half of YFP (Rosa hybrida); assay: as above
[9] = target: RoFTmu1 (R7Q) fused to the C-terminal half of YFP (Rosa hybrida); assay: as above
[10] = target: RoFTmu5 (N154D), bait in pGBKT7 (Rosa hybrida); assay: two-hybrid; AtFD as prey in PGADT7, FT/TFL1 homologs as bait in PGBKT7; co-transformed yeast selected on SD-Leu/-Trp, interactions tested on SD-Leu/-Trp/-His/-Ade/X-a-Gal; three independent clones for each transformation
[11] = target: Petunia FT (PhFT), bait in pGBKT7 (Petunia hybrida); assay: as above
[12] = target: RoFTmu4 (Y153C), bait in pGBKT7 (Rosa hybrida); assay: as above
[13] = target: Rosa FT (RoFT), bait in pGBKT7 (Rosa hybrida); assay: as above
[14] = target: Fragaria TFL1 (FaTFL1), bait in pGBKT7 (Fragaria ananassa); assay: as above
[15] = target: RoFTmu2 (T65I), bait in pGBKT7 (Rosa hybrida); assay: as above
[16] = target: RoFTmu1 (R7Q), bait in pGBKT7 (Rosa hybrida); assay: as above
[17] = target: RoFTmu3 (A116S), bait in pGBKT7 (Rosa hybrida); assay: as above
[18] = target: Rosa TFL1 (RoTFL1), bait in pGBKT7 (Rosa hybrida); assay: as above

B1: AtFD-YFP^N (Arabidopsis FD fused to the N-terminal half of YFP) (protein, UniProt Q84JK2 1-285)
chain: MLSSAKHQRNHRLSATNKNQTLTKVSSISSSSPSSSSSSSSTSSSSPLPSQDSQAQKRSLVTMEEVWNDINLASIHHLNRHSPHPQHNHEPRFRGQNHHNQNPNSIFQDFLKGSLNQEPAPTSQTTGSAPNGDSTTVTVLYSSPFPPPATVLSLNSGAGFEFLDNQDPLVTSNSNLHTHHHLSNAHAFNTSFEALVPSSSFGKKRGQDSNEGSGNRRHKRMIKNRESAARSRARKQAYTNELELEVAHLQAENARLKRQQDQLKMAAAIQQPKKNTLQRSSTAPF
[1]
  binding: no binding
[2]
  binding: binds
[3]
  binding: binds
[4]
  binding: no binding
[5]
  binding: binds
[6]
  binding: binds
[7]
  binding: binds
[8]
  binding: binds
[9]
  binding: binds

B2: Arabidopsis FD (AtFD), prey in pGADT7 (protein, UniProt Q84JK2 1-285)
chain: MLSSAKHQRNHRLSATNKNQTLTKVSSISSSSPSSSSSSSSTSSSSPLPSQDSQAQKRSLVTMEEVWNDINLASIHHLNRHSPHPQHNHEPRFRGQNHHNQNPNSIFQDFLKGSLNQEPAPTSQTTGSAPNGDSTTVTVLYSSPFPPPATVLSLNSGAGFEFLDNQDPLVTSNSNLHTHHHLSNAHAFNTSFEALVPSSSFGKKRGQDSNEGSGNRRHKRMIKNRESAARSRARKQAYTNELELEVAHLQAENARLKRQQDQLKMAAAIQQPKKNTLQRSSTAPF
[10]
  binding: binds
[11]
  binding: no binding
[12]
  binding: binds
[13]
  binding: binds
[14]
  binding: no binding
[15]
  binding: binds
[16]
  binding: binds
[17]
  binding: binds
[18]
  binding: no binding
